Counter-ions that a name gives are not always drawn. At least one compound was matched to its structure with a doubt left.
Experiments:
food intake = conditions: rats, literature reports; cited from earlier work
[1] = test system: food consumption in food deprived animals; experiment: Regulation of feeding behaviour, food consumption in food deprived animals; type: in vivo; conditions: 3 hours after a dose of 1 mg/kg s.c.

| SMILES | effect on food intake (food intake) | hypophagia (food consumption) [1] |
| --- | --- | --- |
| FC(F)(F)c1cccc(N2CCNCC2)c1 [TFMPP, trifluoromethylphenylpiperazine] | reduce food intake | – |
| Clc1ccc2c(c1)N1CCNCC1C2 (racemic) [Example 1, (RS) 7-Chloro-1,2,3,4,10,10a-hexahydropyrazino[1,2-a]indole hydrochloride] | – | significant hypophagia |

From patent US7145009B2, “Pirazino(aza)indole derivatives” (priority 1999, dated 2006)
